Source: PubChem BioAssay AID540256 (National Center for Advancing Translational Sciences (NCATS), 2011)
About 3,700 (1.2%) of roughly 300,000 compounds were called active. Inconclusive results, whose numbers are uncertain, are shown with a selection of clear calls. The call rests on the fitted dose curve; tested in HEK293 cells. A potency beside an inconclusive call is a rough fit, not a confirmed value.

Assay: qHTS for Inhibitors of binding or entry into cells for Lassa Virus; further: nearly all actives have a fitted effect of over 50% in size
Conditions: Lassa virus pseudotype entry inhibition, cell reporter; series mostly up to 37.9 µM
Potency means the concentration at half of the fitted maximal effect.

| SMILES | Potency |
| --- | --- |
| COc1cc(CNCCN2CCOCC2)ccc1OCc1c(Cl)cccc1Cl | inconclusive: 20.6 µM [inhibitor, single point] |
| Cc1cc(C)cc(NC(=O)C(=O)NC(C)c2ccccc2)c1 (stereo unspecified) | inactive |
| Cc1csc(NC(=O)CSc2nnc(-c3ccoc3C)o2)n1 | inconclusive: 1.3 µM [activator, full curve] |
| CCOc1ccc(CNC(=S)Nc2ccccc2)cc1Cl | inconclusive: 8.91 µM [inhibitor, partial curve, poor fit] |
| CCOC(=O)c1cc(-c2ccccc2)n(-c2cccc(C(=O)N(CC)c3ccccc3)c2)c1C | inconclusive: 35.5 µM [inhibitor, partial curve, poor fit] |
| CC(C)(C)C(=O)Nc1ccc(C(=O)N/N=C/c2ccccc2OC(=O)c2ccc(Cl)cc2)cc1 | inconclusive: 11.2 µM [inhibitor, partial curve] |
| CN(C)S(=O)(=O)c1cccc(NC(=S)NC(=O)c2ccco2)c1 | inconclusive: 20 µM [inhibitor, single point] |
| Cc1c(Nc2cc(Cl)c3nonc3c2[N+](=O)[O-])c(=O)n(-c2ccccc2)n1C | inconclusive: 6.31 µM [inhibitor, full curve, poor fit] |
| COc1ccc(Cn2c(O)c(C=NCCCn3ccnc3)c(=O)[nH]c2=O)cc1 | inconclusive: 35.5 µM [inhibitor, single point] |
| Cc1ccc(NC(=S)N2CCC(c3ccccc3)C2)c(Cl)c1 (stereo unspecified) | active: 10 µM |
| O=C(CSc1ccc(Cl)cc1)N1CCN(c2ncc(C(F)(F)F)cc2Cl)CC1 | inactive |
| CC1CCN(C(=O)CSc2ccc(-c3ccccc3)nn2)CC1 | inconclusive: 11.2 µM [inhibitor, partial curve, poor fit] |
| COc1ccc2c(c1)C(=O)N(c1ccccc1OC)C(=O)C2(C)C | inactive |
| COc1ccc(CCn2nnnc2C(c2ccc(C)cc2)N2CCN(C)CC2)cc1OC (stereo unspecified) | inconclusive: 0.366 µM [inhibitor, full curve] |
| COc1ccc(N2CC(NC(=O)COc3ccccc3C)CC2=O)cc1OC (stereo unspecified) | inconclusive: 35.5 µM [inhibitor, single point] |
| COc1cccc(C(=O)C2CN(C)CC2c2ccc(Cl)cc2)c1 (stereo unspecified) | inconclusive: 35.5 µM [inhibitor, single point] |
| CCN1c2cc(C)ccc2-n2cccc2C12CCN(C(=O)Nc1cc(OC)c(OC)c(OC)c1)CC2 | inconclusive: 10 µM [inhibitor, partial curve, poor fit] |
| COc1cc2[nH]c(=O)n(CCCCCC(=O)NCCc3ccccc3)c(=O)c2cc1OC | inconclusive: 6.31 µM [activator, single point] |
| COc1ccc(OCc2cccc(C(=O)Nc3ccc(CN4CCCCC4)cc3)c2)cc1 | inconclusive: 1.84 µM [activator, partial curve] |
| Fc1ccc(-c2nnc(-c3ccc(Cl)cc3)o2)cc1 | inactive |
| CCOC(=O)c1sc(Nc2ccc(Br)cc2)nc1C | inconclusive: 3.98 µM [inhibitor, partial curve, poor fit] |
| O=C1c2cccc3c([N+](=O)[O-])ccc(c23)C(=O)N1c1ccc(Cl)cn1 | inconclusive: 9.2 µM [inhibitor, partial curve, poor fit] |

Individual results from the list:
Value for Cc1c(Nc2cc(Cl)c3nonc3c2[N+](=O)[O-])c(=O)n(-c2ccccc2)n1C under Potency: inconclusive: 6.31 µM [inhibitor, full curve, poor fit]
Value for COc1ccc(CCn2nnnc2C(c2ccc(C)cc2)N2CCN(C)CC2)cc1OC (stereo unspecified) under Potency: inconclusive: 0.366 µM [inhibitor, full curve]

The listing continues:

| SMILES | Potency |
| --- | --- |
| CCCN1C(=O)c2cc(C(=O)Nc3ccccc3OC)ccc2C1Nc1ccccc1OC (stereo unspecified) | inconclusive: 10 µM [inhibitor, partial curve, poor fit] |
| Fc1ccccc1NC(=S)NNc1ncc(C(F)(F)F)cc1Cl | inconclusive: 25.1 µM [inhibitor, single point] |
| COc1ccc(NC(=O)c2cccc(N3C(=O)C4C5C=CC(C5)C4C3=O)c2)cc1Cl (stereo unspecified) | inactive |
| CN(Cc1c(F)cccc1Cl)C(=O)c1cnc2ccccc2n1 | inactive |
| CCC(Br)C(=O)Nc1ccc(OC)cc1 (stereo unspecified) | inactive |
| COc1cc(OC)c(N(C)S(=O)(=O)c2cccc(C(=O)NC(C)C3CC4CCC3C4)c2)cc1Cl (stereo unspecified) | inconclusive: 10.3 µM [inhibitor, partial curve] |
| COc1ccc(O)c(/C=N/NS(=O)(=O)c2ccc(C)cc2)c1 | inactive |
| CCN1CCN(c2sc(S(C)(=O)=O)nc2S(=O)(=O)c2ccc(Cl)cc2)CC1 | inconclusive: 35.5 µM [inhibitor, single point] |
| COC(=O)c1ccccc1NC(=O)c1cn(-c2ccc(C)c(C)c2)c(=O)c2ccccc12 | inconclusive: 35.5 µM [inhibitor, single point] |
| O=[N+]([O-])c1ccc(NC(c2ccccc2)c2ccc3cccnc3c2O)cc1 (stereo unspecified) | inconclusive: 3.16 µM [inhibitor, full curve] |
| CCCOc1ccc(CN(C(=O)c2nc(SC(C)C)ncc2Cl)C2CCS(=O)(=O)C2)cc1 (stereo unspecified) | inconclusive: 10 µM [inhibitor, single point] |
| CCOC(=O)c1c(NC(=O)/C=C/C(=O)O)sc(C)c1-c1ccc(C)c(C)c1 | inconclusive: 32.6 µM [inhibitor, single point] |
| N#CC1(NC(=O)CSc2n[nH]c(-c3ccccc3)n2)CCCCC1 | inconclusive: 2.51 µM [activator, partial curve, poor fit] |
| CCN1CCN(CCCNC(=O)c2csc3c2CCCCC3)CC1 | inconclusive: 4.11 µM [activator, full curve, poor fit] |
| COc1ccc(CCNC(=O)CCc2c(C)c3cc4c(C)c(C)oc4cc3oc2=O)cc1 | inactive |
| C(=N\n1cnnc1)/c1ccc(OCc2cccc3ccccc23)cc1 | inconclusive: 35.5 µM [inhibitor, single point] |
| CC(Cc1ccccc1Sc1ccccc1)N(C)C (stereo unspecified) | inconclusive: 11.2 µM [inhibitor, partial curve, poor fit] |
| C/C=C/Cn1c(SCCCc2ccccc2)nc2c1c(=O)[nH]c(=O)n2C | inconclusive: 20.6 µM [inhibitor, single point] |
| NS(=O)(=O)c1cccc(NC(=O)CCSc2ccccc2Cl)c1 | inconclusive: 18.4 µM [activator, single point] |
| Cc1ccc(NC2=Nc3ccccc3CS2)cc1 | inconclusive: 20 µM [inhibitor, single point] |
| COc1cc(NC(=O)c2cnc3c(-c4ccc(F)cc4)c(C)nn3c2C)cc(OC)c1 | inactive |
| Cc1ccc(Sc2c(C(=O)NCc3ccccc3C)[nH]c3ccccc23)cc1 | inactive |

Two of these compounds, set out differently:
SMILES | Potency
CC(Cc1ccccc1Sc1ccccc1)N(C)C (stereo unspecified) | inconclusive: 11.2 µM [inhibitor, partial curve, poor fit]
C/C=C/Cn1c(SCCCc2ccccc2)nc2c1c(=O)[nH]c(=O)n2C | inconclusive: 20.6 µM [inhibitor, single point]

(listing goes on)

| SMILES | Potency |
| --- | --- |
| CCC(C)(C)NC(=O)C(c1cccc(OC)c1OC)N(Cc1ccccc1)C(=O)CCC(=O)Nc1cc(C)on1 (stereo unspecified) | inconclusive: 7.08 µM [inhibitor, full curve, poor fit] |
| O=c1c2ccccc2nc(/C=C/c2ccc([N+](=O)[O-])o2)n1-c1ccc(O)cc1 | inconclusive: 2.82 µM [inhibitor, full curve, poor fit] |
| CC1CCCCN1S(=O)(=O)c1ccc(S(=O)(=O)N(CC(=O)Nc2ccccc2)Cc2cccs2)cc1 (stereo unspecified) | inconclusive: 35.5 µM [inhibitor, single point] |
| Cc1c(Cl)c(-c2n[nH]c(=S)n2-c2ccc(F)cc2)nn1C | inactive |
| CSc1nc(-c2ccco2)nn1S(C)(=O)=O | inconclusive: 29.1 µM [activator, single point] |
| S=c1[nH]cnc2scc(-c3ccc(Br)cc3)c12 | inactive |
| CCOC(=O)C(NS(=O)(=O)c1ccccc1)(C(F)(F)F)P(=O)(OCC(C)C)OCC(C)C (stereo unspecified) | inconclusive: 35.5 µM [inhibitor, single point] |
| O=C(NC1CCCCC1)C(c1ccc(O)cc1)N(CC1CCCO1)C(=O)C1COc2ccccc2O1 (stereo unspecified) | inconclusive: 25.9 µM [inhibitor, single point] |
| O=C(CSc1ncc(CO)n1Cc1ccccc1)Nc1ccc(C(F)(F)F)cc1 | inactive |
| COc1cccc(C2c3c(-c4ccccc4O)n[nH]c3C(=O)N2CCc2ccc(OC)c(OC)c2)c1 (stereo unspecified) | inconclusive: 8.91 µM [inhibitor, partial curve, poor fit] |
| CC(C)COc1ccc(C(=O)N2CCN(CCc3ccccn3)CC2)cc1 | inactive |
| CCc1ccc(NC(=O)C(=O)NCC2CCCN2S(=O)(=O)c2ccccc2)cc1 (stereo unspecified) | inactive |
| C=C(C)c1cccc(C(C)(C)NC(=O)N2CC(C)OC(C)C2)c1 (stereo unspecified) | inconclusive: 2.82 µM [inhibitor, partial curve, poor fit] |
| CC(NC(=S)N1CCOCC1)c1ccccc1 (stereo unspecified) | inconclusive: 5.62 µM [activator, single point] |
| O=C(CCNc1ccc(Cc2ccncc2)cc1)c1cccc([N+](=O)[O-])c1 | inconclusive: 14.1 µM [inhibitor, single point] |
| COc1cc2c(cc1/C=C/[N+](=O)[O-])OCO2 | inconclusive: 31.6 µM [inhibitor, single point] |
| COc1ccc(CC(=O)Nc2cccc(-c3ccc4nncn4n3)c2)cc1OC | inconclusive: 17.8 µM [inhibitor, single point] |
| CCOc1ccc(CCNC(=O)Cn2ncc3c(=O)oc4ccc(C)cc4c32)cc1 | inactive |
| CCOC(=O)c1c(C)[nH]c(C)c1S(=O)(=O)N1CCC(C(=O)Nc2ccc(C)cn2)CC1 | inactive |
| CCOc1cc2[nH]c(=O)n(CCCC(=O)N3CCN(c4ccc(OC)cc4)CC3)c(=O)c2cc1OCC | inactive |
| COc1ccc(/C=C/C(=O)NC(=S)Nc2ccc(S(N)(=O)=O)cc2)cc1 | inconclusive: 3.98 µM [inhibitor, full curve, poor fit] |
| CN(c1ccccc1)S(=O)(=O)c1ccc(NC(=O)c2ccco2)cc1 | inconclusive: 11.2 µM [inhibitor, partial curve, poor fit] |
